Among all 1,300 compounds or so, fewer than 10 were called active. Not shown: some 9% with an inconclusive outcome. Calls come from the whole dose curve; as a rule, active = well fitted curve in the direction sought with a large enough effect; inconclusive = small, poorly fitted or top-dose-only effect, or another doubt; inactive = no such curve, though single readings can be large or run the other way. This is one part of the list.
Assay: qHTS for antagonists of the Thyroid Stimulation Hormone Receptor: Hit Validation in Parental Cell Line; note: 0% is about no effect
Settings: parental HEK293 cells lacking TSHR, counter-screen; series mostly up to 56.9 µM; activity change, negative = inhibition: at the top concentration
How it was run: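 Counterscreen in untransfected parental HEK-EM 293 cells. Lysate cAMP displaces cAMP-d2 from cryptate-tagged anti-cAMP antibody, and homogeneous TR-FRET is read at 665 nm with 337 nm excitation after stimulation.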

| Structure (SMILES) | activity change, negative = inhibition |
| --- | --- |
| CCN1C(=NCc2ccc(OC)cc2)N[C@@H](CCc2ccccc2)[C@H](C(=O)NCc2ccc(OC)cc2)[C@H]1C | inactive: -1.38% |
| COc1cccc(OC)c1C(=O)Nc1ccc2c(c1)N(S(=O)(=O)c1cccs1)CCC2 | inactive: 1.27% |
| CCOc1cc(/C=C/c2ccc3cccc([N+](=O)[O-])c3n2)ccc1OCC(=O)N(C)C | inactive: 0.169% |
| COc1ccc(NC(=O)c2c(F)cccc2F)cc1S(=O)(=O)Nc1ccc(Br)cc1 | inactive: -1.38% |
| CS(=O)(=O)c1ncc(Cl)c(C(=O)Nc2ccc3ccccc3c2)n1 | inactive: 2.52% |
| CCOC(=O)COc1ccc(Br)cc1/C=C/c1[nH]c(=O)[nH]c(=O)c1[N+](=O)[O-] | inactive: -4.09% |
| CC(C)(C)c1cc2nc3c(c(=O)n2[nH]1)CN(Cc1ccccc1)C3=O | inactive: -3.97% |
| COc1ccc(-c2nc(NC(=O)c3cc(C(C)(C)C)nn3C)sc2C)cc1 | inactive: -7.16% |
| N#C/C(=N\Nc1ccc(S(=O)(=O)N2CCCCCC2)cc1)C(N)=S | inactive: -4.32% |
| N#C/C(=C\c1ccc(O)c([N+](=O)[O-])c1)c1nc2ccccc2s1 | inactive: -1.07% |
| Cc1ccc(CNC(=O)CSc2nnc3c(n2)[nH]c2ccccc23)cc1 | inactive: 5.85% |
| Cc1ccccc1NC(=O)Cc1nc(COC(=O)c2cccc([N+](=O)[O-])c2)cs1 | inactive: 2.5% |
| Cc1cccc(N2CCN(C(=O)C3(S(=O)(=O)c4ccc(Cl)cc4)CC3)CC2)c1C | inactive: 0.394% |
| O=C(COc1ccc(Cl)cc1)Nc1ncc([N+](=O)[O-])s1 | inactive: -4.58% |
| Cc1nn(S(=O)(=O)c2ccc(F)cc2)c(C)c1S(=O)(=O)N1CCOCC1 | inactive: 1.2% |
| COc1cc(C(C(=O)NCc2ccccc2)N(C(=O)c2snc(C(N)=O)c2N)C2CCCC2)cc(OC)c1OC (stereo not given) | inactive: 4.33% |
| COc1ccc(NC2CCCN(C(=O)CCc3cccc(F)c3)C2)cc1 (stereo not given) | inactive: 2.4% |
| Cc1nn(-c2nc3ccccc3s2)c(N)c1-c1ccccc1 | inactive: -9.47% |
| CC1Cc2ccccc2N1C(=O)COC(=O)/C=C/c1ccc(F)cc1 (stereo not given) | inactive: 3.96% |
| O=C(N=C1SC2CS(=O)(=O)CC2N1c1ccc(F)cc1)C1CC1 (stereo not given) | inactive: 4.97% |
| Cc1nn(Cc2ccc(Cl)cc2)c(C)c1NC(=O)c1noc2c1CCc1ccccc1-2 | inactive: -0.224% |
| Cc1ccc(N2CCN(S(=O)(=O)c3ccc(F)cc3)CC2)c(C)c1 | inactive: 5.16% |

Given as tab-separated lines: entries from further up
Structure (SMILES)	activity change, negative = inhibition
CS(=O)(=O)c1ncc(Cl)c(C(=O)Nc2ccc3ccccc3c2)n1	inactive: 2.52%
CCOC(=O)COc1ccc(Br)cc1/C=C/c1[nH]c(=O)[nH]c(=O)c1[N+](=O)[O-]	inactive: -4.09%

Following part

| Structure (SMILES) | activity change, negative = inhibition |
| --- | --- |
| CCNC(=O)c1ccccc1NC(=O)C1CC(=O)N(C(C)C)C1 (stereo not given) | inactive: 5.32% |
| COc1cccc(-c2cc(C(=O)Nc3ccn(Cc4ccc(C)cc4)n3)no2)c1 | inactive: 0.598% |
| O=[N+]([O-])c1cc(Br)c(O)c(C=Nc2ccc(N3CCOCC3)cc2)c1 | inactive: 2.6% |
| Cn1c(=O)c([N+](=O)[O-])c(Cl)c2ccccc21 | inactive: -7.43% |
| COc1ccc(OCC(=O)NNC(=O)C2CCN(c3ncnc4sc(C)c(C)c34)CC2)cc1 | inactive: 1.9% |
| CC(Oc1ccc(Cl)cc1Cl)C(=O)Nc1cccnc1 (stereo not given) | inactive: 2.55% |
| C=CCN1C=CC(=C/C=C(/C#N)C(=O)OCC)C=C1 | inactive: 1.54% |
| CCSCCc1nnc(NC(=O)Nc2cccc(C(F)(F)F)c2)s1 | inactive: -0.944% |
| O=C(NCCS(=O)(=O)N1CCN(c2ccccc2)CC1)C1CC(=O)N(c2ccccc2)C1 (stereo not given) | inactive: 1.36% |
| CC(=O)N1c2ccc(S(=O)(=O)N3CCC(C(=O)NC(C)c4ccccc4)CC3)cc2CC1C (stereo not given) | inactive: 5.39% |
| Cc1ccc(CCNC(=O)C2CC(c3cc(C(F)(F)F)cc(C(F)(F)F)c3)=NO2)cc1 (stereo not given) | inactive: 3.88% |
| O=C(c1ccc2c(c1)OCO2)N1CCN(S(=O)(=O)c2ccc(Cl)cc2)CC1 | inactive: 2.44% |
| C=C(C)C1CCC(C)=C1COC(=O)Nc1ccccc1 (stereo not given) | inactive: 1.25% |
| CCN(C(=O)CN1C(=O)COc2ccc(S(=O)(=O)N3CCOCC3)cc21)c1ccc(OC)cc1 | inactive: 3.9% |
| Cc1ccc(CN2CCc3c(OCc4ccc(F)cc4)cccc3C2=O)cc1 | inactive: -2.57% |
| CCSc1nsc(NC(=O)Nc2cccc(OC)c2)n1 | inactive: -9.5% |
| CCCCc1c(C)nc2nc(SCc3ccc(Cl)cc3)[nH]n2c1=O | inactive: -0.616% |
| CCc1ccc(-c2nc(SCC(=O)NC3CCCC3)n[nH]2)cc1 | inactive: 0.958% |
| N#Cc1ccc(CN2CCN(C(=O)c3ccc(S(=O)(=O)N4CCCCCC4)cc3)CC2)cc1 | inactive: -5.72% |
| COc1ccc(-c2c(C(F)(F)F)[nH]n3c(=O)cc(-c4ccccc4)nc23)cc1 | inactive: -6.45% |
| Cn1c(N)c(Sc2ccccc2[N+](=O)[O-])c(=O)n(C)c1=O | inactive: 4.24% |
| O=C(OCCN1C(=O)c2cccc3c(N4CCOCC4)ccc(c23)C1=O)c1cccc(Cl)c1 | inactive: 0.616% |

| Structure (SMILES) | activity change, negative = inhibition |
| --- | --- |
| Oc1ccc(N=Nc2nccs2)c(O)c1 | inactive: -1.15% |
| CC1SCC(=NOCc2ccccc2)CS1 (stereo not given) | inactive: 5.41% |
| CC(=O)c1cccc(NC(=O)CCCSc2ccccc2)c1 | inactive: -0.783% |
| CC1=C(C(=O)OC(C)(C)C)C(c2ccc3ccccc3c2)NC(=O)N1C (stereo not given) | inactive: 5.33% |
| Cc1cccc(OCc2nnc(SCC(=O)N3c4ccccc4CCc4ccccc43)o2)c1 | inactive: 4.76% |
| Cc1cc2oc(=O)cc(CSc3nnc(-c4cccs4)o3)c2cc1C(C)C | inactive: -4.67% |
| O=C(NCCc1ccccc1)c1cccnc1N1CCCCCC1 | inactive: 0.822% |
| O=c1cc(C(F)(F)F)[nH]c2ccc(OC(F)(F)F)cc12 | inactive: 4.01% |
| O=c1c(Sc2ccccc2)c(C(F)(F)F)[nH]n1-c1ccccc1 | inactive: -5.39% |
| CCOc1cc(N2CCOCC2)c(OCC)cc1NC(=O)c1cccc(S(=O)(=O)N2CCOCC2)c1 | inactive: -1.44% |
| O=C(O)c1ccccc1NS(=O)(=O)c1cccc(-n2sc3ccccc3c2=O)c1 | inactive: -0.303% |
| O=S(=O)(c1cc(C(F)(F)F)ccc1Cl)N1CCN(c2ncnc3ccccc23)CC1 | inactive: 0.583% |
| Cc1ccc(S(=O)(=O)N2CCOCC2)cc1N/N=C(\C#N)c1nc2ccccc2[nH]1 | inactive: -3.67% |
| O=C(Nc1cccc(Cl)c1)Nc1nnc(-c2ccncc2)s1 | inactive: -4.39% |
| COCC(C)NC(=O)C1c2ccccc2Oc2ccccc21 (stereo not given) | inactive: 3.44% |
| O=C(Nc1nc(-c2ccc(S(=O)(=O)N3CCCCCC3)cc2)cs1)c1ccccc1 | inactive: -3.18% |
| COCCCn1c(=O)c2sccc2n(Cc2cccc(C)c2)c1=O | inactive: 3.03% |
| Cc1cc(OCc2cc(C(=O)N(C)C(C)c3ccccn3)no2)cc(C)c1Cl (stereo not given) | inactive: -8.07% |
| Clc1ccc(CSc2nnc(CNc3cccc(Cl)c3)o2)cc1 | inactive: -0.379% |
| COc1ccccc1C(=O)Nc1nnc(SCC(=O)NC2CCCC2)s1 | inactive: 1.5% |
| Cn1nnnc1SCC1=C(C(=O)O)N2C(=O)C(NC(=O)C3CC3c3ccccc3)C2SC1 (stereo not given) | inactive: 0.338% |

15 of the compounds above, as comma-separated lines.
Structure (SMILES),"activity change, negative = inhibition"
CC(=O)c1cccc(NC(=O)CCCSc2ccccc2)c1,inactive: -0.783%
CC1=C(C(=O)OC(C)(C)C)C(c2ccc3ccccc3c2)NC(=O)N1C (stereo not given),inactive: 5.33%
Cc1cccc(OCc2nnc(SCC(=O)N3c4ccccc4CCc4ccccc43)o2)c1,inactive: 4.76%
Cc1cc2oc(=O)cc(CSc3nnc(-c4cccs4)o3)c2cc1C(C)C,inactive: -4.67%
O=C(NCCc1ccccc1)c1cccnc1N1CCCCCC1,inactive: 0.822%
O=c1cc(C(F)(F)F)[nH]c2ccc(OC(F)(F)F)cc12,inactive: 4.01%
O=c1c(Sc2ccccc2)c(C(F)(F)F)[nH]n1-c1ccccc1,inactive: -5.39%
CCOc1cc(N2CCOCC2)c(OCC)cc1NC(=O)c1cccc(S(=O)(=O)N2CCOCC2)c1,inactive: -1.44%
O=C(O)c1ccccc1NS(=O)(=O)c1cccc(-n2sc3ccccc3c2=O)c1,inactive: -0.303%
O=S(=O)(c1cc(C(F)(F)F)ccc1Cl)N1CCN(c2ncnc3ccccc23)CC1,inactive: 0.583%
Cc1ccc(S(=O)(=O)N2CCOCC2)cc1N/N=C(\C#N)c1nc2ccccc2[nH]1,inactive: -3.67%
O=C(Nc1cccc(Cl)c1)Nc1nnc(-c2ccncc2)s1,inactive: -4.39%
COCC(C)NC(=O)C1c2ccccc2Oc2ccccc21 (stereo not given),inactive: 3.44%
O=C(Nc1nc(-c2ccc(S(=O)(=O)N3CCCCCC3)cc2)cs1)c1ccccc1,inactive: -3.18%
COCCCn1c(=O)c2sccc2n(Cc2cccc(C)c2)c1=O,inactive: 3.03%

From PubChem BioAssay AID602441 (National Center for Advancing Translational Sciences (NCATS), 2012)
